Reference: patent US20210340178A1 (FEDERALNOYE GOSUDARSTVENNOE BUDGETNOE UCHREZHDENIE …, priority 2018, published 2021)
Non-standard residues stand in square brackets, D forms with d. NMeR = CN[C@@H](CCCNC(=N)N)C(=O)O

How the values were obtained:
[1] = general procedure: Fmoc solid-phase peptide synthesis; Rink-amide resin (Novabiochem), 0.64 mmol/g; TBTU/NMM; settings: whole synthesis
[2] = general procedure: Fmoc solid-phase peptide synthesis; Rink-amide resin; TBTU/NMM; settings: whole synthesis, scale 0.38 mmol
[3] = analytical HPLC, Nucleosil 100-5 C18, UV 220 nm, scale of the general procedure 0.38 mmol
[4] = 220 nm, scale of the general procedure 0.38 mmol

Substance	final HPLC purity [1, 3]	isolated mass [1]	crude HPLC purity [1, 4]	final HPLC purity [1, 4]	isolated yield ([1]; per starting amino acid, scale of the general procedure 0.38 mmol)	crude mass [2]
H-KKRAARATS-NH2	96.1%	–	–	–	–	–
H-K[dK]RAARATS-NH2 (SMILES C[C@H](NC(=O)[C@H](C)NC(=O)[C@H](CCCNC(=N)N)NC(=O)[C@@H](CCCCN)NC(=O)[C@@H](N)CCCCN)C(=O)N[C@@H](CCCNC(=N)N)C(=O)N[C@@H](C)C(=O)N[C@H](C(=O)N[C@@H](CO)C(N)=O)[C@@H](C)O)	–	0.23 g	52%	97.2%	38.8%	0.76 g
H-[NMeR]KKYKYR[dR]K-NH2 (SMILES CN[C@@H](CCCNC(=N)N)C(=O)N[C@@H](CCCCN)C(=O)N[C@@H](CCCCN)C(=O)N[C@@H](Cc1ccc(O)cc1)C(=O)N[C@@H](CCCCN)C(=O)N[C@@H](Cc1ccc(O)cc1)C(=O)N[C@@H](CCCNC(=N)N)C(=O)N[C@H](CCCNC(=N)N)C(=O)N[C@@H](CCCCN)C(N)=O)	96.8%	–	–	–	–	–
